Data: the supplement of paper PMC10849652
Some of the results follow.

Amino acid sequences for entries named in this document (tags omitted). A change or cut given only in a name is not applied to a line headed by its entry.
UniProt P02647, whole entry, looked up: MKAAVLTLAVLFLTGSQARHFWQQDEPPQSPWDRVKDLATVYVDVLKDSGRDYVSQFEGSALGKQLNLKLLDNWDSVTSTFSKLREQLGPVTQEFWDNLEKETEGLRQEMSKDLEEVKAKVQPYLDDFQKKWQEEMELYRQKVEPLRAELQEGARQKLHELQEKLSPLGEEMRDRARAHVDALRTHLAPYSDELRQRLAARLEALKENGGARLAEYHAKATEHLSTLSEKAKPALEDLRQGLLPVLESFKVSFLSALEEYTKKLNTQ
UniProt Q9BPX5, whole entry, looked up: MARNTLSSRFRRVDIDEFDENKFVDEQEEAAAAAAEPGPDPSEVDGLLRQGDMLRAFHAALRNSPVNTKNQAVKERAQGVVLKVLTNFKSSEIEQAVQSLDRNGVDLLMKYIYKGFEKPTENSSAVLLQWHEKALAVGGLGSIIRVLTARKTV
UniProt O60306: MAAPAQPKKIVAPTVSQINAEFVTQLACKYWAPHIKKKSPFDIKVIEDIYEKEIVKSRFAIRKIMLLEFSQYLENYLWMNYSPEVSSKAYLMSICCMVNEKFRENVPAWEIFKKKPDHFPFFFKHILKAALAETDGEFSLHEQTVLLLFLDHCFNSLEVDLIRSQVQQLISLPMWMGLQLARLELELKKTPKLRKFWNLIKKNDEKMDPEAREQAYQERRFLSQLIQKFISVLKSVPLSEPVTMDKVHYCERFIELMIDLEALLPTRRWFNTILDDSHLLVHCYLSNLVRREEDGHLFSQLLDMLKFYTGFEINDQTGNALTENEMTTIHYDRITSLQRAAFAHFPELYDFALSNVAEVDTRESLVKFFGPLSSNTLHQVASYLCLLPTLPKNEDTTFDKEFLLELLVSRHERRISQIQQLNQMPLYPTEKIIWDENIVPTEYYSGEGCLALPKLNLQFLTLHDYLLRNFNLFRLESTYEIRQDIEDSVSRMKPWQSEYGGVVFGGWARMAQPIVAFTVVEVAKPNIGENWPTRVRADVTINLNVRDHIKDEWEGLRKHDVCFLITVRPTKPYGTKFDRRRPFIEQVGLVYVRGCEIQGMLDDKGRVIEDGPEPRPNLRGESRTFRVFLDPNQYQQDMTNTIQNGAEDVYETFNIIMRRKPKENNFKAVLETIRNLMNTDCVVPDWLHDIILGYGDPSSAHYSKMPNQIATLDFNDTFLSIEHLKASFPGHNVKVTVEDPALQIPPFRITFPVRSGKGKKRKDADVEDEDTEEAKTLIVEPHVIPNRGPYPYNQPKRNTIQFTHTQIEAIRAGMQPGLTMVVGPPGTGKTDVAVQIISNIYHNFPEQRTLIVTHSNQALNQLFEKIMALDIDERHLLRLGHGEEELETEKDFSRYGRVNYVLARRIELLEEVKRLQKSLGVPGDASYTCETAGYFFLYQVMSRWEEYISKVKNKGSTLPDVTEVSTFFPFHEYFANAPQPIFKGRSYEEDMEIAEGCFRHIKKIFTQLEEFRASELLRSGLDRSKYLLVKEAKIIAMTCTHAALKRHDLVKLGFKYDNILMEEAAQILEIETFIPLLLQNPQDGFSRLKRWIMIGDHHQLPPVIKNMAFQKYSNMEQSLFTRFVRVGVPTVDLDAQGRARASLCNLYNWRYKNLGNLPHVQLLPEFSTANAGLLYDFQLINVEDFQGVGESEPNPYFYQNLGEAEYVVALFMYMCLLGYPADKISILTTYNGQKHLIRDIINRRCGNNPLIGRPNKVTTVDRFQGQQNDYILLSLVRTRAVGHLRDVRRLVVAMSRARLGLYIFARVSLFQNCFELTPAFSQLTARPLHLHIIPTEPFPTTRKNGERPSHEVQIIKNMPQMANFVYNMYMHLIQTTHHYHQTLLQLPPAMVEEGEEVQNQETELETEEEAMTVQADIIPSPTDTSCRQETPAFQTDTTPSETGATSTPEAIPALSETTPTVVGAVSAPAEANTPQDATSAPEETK
UniProt P04114: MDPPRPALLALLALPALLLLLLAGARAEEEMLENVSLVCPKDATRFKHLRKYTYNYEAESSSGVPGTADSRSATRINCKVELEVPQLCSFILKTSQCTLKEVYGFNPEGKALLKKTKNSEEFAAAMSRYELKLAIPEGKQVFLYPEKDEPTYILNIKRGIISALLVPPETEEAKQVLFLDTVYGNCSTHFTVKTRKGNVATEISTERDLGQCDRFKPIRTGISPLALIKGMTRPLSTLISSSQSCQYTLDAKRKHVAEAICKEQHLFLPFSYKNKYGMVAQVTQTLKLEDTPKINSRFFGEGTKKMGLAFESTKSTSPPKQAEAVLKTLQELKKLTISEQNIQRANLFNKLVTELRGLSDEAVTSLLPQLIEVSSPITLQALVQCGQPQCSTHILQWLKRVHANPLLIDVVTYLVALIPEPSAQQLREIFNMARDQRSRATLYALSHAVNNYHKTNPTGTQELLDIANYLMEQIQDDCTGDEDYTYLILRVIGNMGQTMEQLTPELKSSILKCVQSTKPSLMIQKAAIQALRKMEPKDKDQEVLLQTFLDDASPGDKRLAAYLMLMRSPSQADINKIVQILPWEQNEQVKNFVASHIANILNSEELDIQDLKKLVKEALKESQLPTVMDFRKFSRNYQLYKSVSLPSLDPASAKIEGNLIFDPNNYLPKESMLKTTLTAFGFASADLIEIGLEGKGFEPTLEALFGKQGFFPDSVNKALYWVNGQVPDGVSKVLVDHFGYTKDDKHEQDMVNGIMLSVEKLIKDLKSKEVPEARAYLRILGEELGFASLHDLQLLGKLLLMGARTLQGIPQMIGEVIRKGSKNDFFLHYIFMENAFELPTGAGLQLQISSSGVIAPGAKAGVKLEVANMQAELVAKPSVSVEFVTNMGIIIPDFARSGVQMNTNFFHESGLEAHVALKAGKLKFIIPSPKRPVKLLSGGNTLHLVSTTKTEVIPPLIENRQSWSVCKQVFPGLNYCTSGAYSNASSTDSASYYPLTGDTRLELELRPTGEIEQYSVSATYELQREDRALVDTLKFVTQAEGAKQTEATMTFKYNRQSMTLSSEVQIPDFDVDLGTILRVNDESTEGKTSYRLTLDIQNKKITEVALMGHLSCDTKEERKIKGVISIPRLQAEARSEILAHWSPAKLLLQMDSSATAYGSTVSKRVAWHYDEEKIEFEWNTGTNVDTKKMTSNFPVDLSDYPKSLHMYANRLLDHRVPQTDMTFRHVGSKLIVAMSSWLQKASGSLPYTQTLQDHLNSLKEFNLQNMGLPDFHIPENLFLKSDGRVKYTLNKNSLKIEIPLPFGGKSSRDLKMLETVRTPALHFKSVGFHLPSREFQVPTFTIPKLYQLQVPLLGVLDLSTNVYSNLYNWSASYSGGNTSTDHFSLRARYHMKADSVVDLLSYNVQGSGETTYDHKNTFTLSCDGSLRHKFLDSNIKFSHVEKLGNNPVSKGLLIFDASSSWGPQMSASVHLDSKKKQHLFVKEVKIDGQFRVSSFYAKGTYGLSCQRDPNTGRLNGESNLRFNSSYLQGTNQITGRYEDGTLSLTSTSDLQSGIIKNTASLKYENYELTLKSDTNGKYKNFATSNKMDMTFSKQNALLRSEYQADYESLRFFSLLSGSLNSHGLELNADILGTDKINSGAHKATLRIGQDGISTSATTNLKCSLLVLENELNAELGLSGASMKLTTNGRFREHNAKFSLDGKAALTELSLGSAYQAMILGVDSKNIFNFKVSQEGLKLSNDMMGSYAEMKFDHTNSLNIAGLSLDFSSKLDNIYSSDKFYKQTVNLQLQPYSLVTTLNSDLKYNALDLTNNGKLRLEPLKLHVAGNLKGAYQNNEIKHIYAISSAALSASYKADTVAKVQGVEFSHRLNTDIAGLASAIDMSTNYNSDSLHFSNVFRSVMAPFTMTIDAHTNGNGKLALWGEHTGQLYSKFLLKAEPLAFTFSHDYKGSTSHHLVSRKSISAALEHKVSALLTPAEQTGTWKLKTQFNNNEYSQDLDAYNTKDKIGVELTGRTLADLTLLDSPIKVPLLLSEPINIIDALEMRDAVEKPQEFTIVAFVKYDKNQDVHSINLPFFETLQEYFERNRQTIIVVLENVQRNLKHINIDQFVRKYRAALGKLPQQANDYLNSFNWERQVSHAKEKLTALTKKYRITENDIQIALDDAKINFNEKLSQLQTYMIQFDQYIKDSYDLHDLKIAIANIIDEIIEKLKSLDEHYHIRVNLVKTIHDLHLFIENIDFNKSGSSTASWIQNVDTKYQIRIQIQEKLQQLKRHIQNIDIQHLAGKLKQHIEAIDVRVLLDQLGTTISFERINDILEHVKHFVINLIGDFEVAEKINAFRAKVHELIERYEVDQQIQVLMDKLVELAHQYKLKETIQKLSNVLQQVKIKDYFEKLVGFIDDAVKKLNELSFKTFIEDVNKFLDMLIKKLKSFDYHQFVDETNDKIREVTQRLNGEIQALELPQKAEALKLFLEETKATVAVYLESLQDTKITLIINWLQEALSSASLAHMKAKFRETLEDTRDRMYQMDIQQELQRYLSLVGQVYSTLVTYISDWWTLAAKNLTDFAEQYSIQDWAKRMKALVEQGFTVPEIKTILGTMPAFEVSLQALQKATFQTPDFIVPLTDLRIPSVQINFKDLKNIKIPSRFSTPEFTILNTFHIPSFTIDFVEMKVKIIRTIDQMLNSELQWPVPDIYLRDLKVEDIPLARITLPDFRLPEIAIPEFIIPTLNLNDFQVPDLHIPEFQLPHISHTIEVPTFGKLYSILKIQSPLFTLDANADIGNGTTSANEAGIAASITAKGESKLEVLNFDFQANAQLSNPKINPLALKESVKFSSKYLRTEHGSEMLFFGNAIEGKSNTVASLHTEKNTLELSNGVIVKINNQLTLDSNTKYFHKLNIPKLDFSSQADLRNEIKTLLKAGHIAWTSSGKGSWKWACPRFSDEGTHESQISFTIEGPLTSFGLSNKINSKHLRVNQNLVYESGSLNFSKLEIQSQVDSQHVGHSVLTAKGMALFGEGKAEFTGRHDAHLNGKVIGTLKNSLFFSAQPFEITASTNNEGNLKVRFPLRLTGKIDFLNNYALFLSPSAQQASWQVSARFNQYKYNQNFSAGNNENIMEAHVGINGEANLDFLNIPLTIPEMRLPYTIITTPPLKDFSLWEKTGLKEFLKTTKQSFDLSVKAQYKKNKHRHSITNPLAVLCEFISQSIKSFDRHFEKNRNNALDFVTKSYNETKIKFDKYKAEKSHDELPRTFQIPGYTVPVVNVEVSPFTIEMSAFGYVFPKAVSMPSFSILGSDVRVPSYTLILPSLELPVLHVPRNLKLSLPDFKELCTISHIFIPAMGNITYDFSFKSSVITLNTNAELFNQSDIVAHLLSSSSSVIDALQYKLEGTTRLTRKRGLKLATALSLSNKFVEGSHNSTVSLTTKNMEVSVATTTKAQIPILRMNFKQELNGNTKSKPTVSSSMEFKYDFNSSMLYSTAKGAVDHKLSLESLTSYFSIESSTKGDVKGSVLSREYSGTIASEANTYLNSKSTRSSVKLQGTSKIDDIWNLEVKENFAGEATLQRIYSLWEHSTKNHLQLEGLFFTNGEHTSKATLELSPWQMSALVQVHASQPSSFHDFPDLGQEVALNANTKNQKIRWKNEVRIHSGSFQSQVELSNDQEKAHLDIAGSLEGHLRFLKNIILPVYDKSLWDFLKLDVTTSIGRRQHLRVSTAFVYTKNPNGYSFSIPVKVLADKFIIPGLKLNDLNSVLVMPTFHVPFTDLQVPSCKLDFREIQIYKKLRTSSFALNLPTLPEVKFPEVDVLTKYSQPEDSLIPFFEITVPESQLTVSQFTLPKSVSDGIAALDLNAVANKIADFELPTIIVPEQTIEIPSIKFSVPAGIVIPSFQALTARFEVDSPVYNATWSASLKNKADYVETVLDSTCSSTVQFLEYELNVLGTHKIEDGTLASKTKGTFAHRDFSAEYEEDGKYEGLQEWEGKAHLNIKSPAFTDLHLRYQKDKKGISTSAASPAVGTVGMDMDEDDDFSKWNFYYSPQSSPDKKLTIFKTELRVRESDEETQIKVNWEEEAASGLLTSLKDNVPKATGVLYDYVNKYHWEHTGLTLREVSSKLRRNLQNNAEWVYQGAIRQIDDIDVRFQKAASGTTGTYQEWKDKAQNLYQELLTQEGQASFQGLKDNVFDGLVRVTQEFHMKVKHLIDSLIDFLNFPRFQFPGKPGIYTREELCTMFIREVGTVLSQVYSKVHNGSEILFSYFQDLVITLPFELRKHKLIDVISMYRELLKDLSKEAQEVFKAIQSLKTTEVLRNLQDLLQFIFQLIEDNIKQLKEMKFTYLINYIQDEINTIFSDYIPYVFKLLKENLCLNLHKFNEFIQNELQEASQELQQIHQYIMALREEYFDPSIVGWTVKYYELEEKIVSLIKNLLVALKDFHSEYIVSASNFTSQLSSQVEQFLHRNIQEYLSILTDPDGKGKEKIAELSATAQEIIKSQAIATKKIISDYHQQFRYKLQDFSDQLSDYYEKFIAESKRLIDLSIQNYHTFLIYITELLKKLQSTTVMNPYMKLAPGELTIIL

Experiments:
Experiment in all cases: log2 fold change, soluble protein after heating vs DMSO (PISA); higher = thermal stabilisation; K562 lysate, 10 uM; active = over 0.2 and 3.5 SD of the protein, either way, in both replicates (recomputed)
[1] = compound: CN1CC[C@H](c2c(O)cc(O)c3c(=O)cc(-c4ccccc4Cl)oc23)[C@H](O)C1 [alvocidib]
Method in brief: (§1)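 The values are log-two fold changes in thermal stability compared with solvent controls and come from duplicates. They were obtained by TMTpro 16plex LC-MS/MS, with channel sums equalised, on the supernatant after 21,000xg for 90 min. That supernatant came from crude K562 extract at 1 mg/mL protein treated with 10 μM compound for 30 min, heated for 3 min across 48°C-58°C, pooled and brought to 0.5% NP-40 at 4°C.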

[2] = compound: CN1CCc2c(c3ccccc3n2Cc2ccc(C(=O)NO)cc2)C1 [Tubastatin A]
Method in brief: as §1

[3] = compound: CNC(=O)C1=CC=CC=C1NC2=NC(=NC=C2Cl)NC3=C(C=C(C=C3)N4CCOCC4)OC
Method in brief: as §1

[4] = compound: CNC(=O)c1ccc(Nc2ncc(C(F)(F)F)c(NCc3nccnc3N(C)S(C)(=O)=O)n2)cc1 [defactinib]
Method in brief: as §1

[5] = compound: CNc1nc(-c2ccc3c(N)n[nH]c3c2)cc(N2C[C@@H](C(=O)NC3CCCCC3)CC[C@H]2C)n1
Method in brief: as §1

[6] = compound: COC(=O)N[C@@H](C)CNc1nccc(-c2cn(C(C)C)nc2-c2cc(Cl)cc(NS(C)(=O)=O)c2F)n1 [encorafenib]
Method in brief: as §1

[7] = compound: COC(=O)[C@H](CCSC)NC(=O)C1=C(C=C(C=C1)NC[C@H](CS)N)C2=CC=CC=C2
Method in brief: as §1

[8] = compound: COc1cc(Nc2ncc3c(n2)-c2ccc(Cl)cc2C(c2c(F)cccc2OC)=NC3)ccc1C(=O)O [alisertib]
Method in brief: as §1

[9] = compound: COc1cc2nc(-c3cc(F)ccc3O)nc(N[C@@H]3CNC[C@H]3C(C)(C)O)c2cc1OC
Method in brief: as §1

[10] = compound: COc1cc2ncnc(Nc3ccc(F)c(Cl)c3)c2cc1OCCCN1CCOCC1 [gefitinib]
Method in brief: as §1

[11] = compound: CS(=O)(=O)CCNCc1ccc(-c2ccc3ncnc(Nc4ccc(OCc5cccc(F)c5)c(Cl)c4)c3c2)o1 [lapatinib]
Method in brief: as §1

[12] = compound: CS(=O)(=O)N1CCN(Cc2cc3nc(-c4cccc5[nH]ncc45)nc(N4CCOCC4)c3s2)CC1 [pictilisib]
Method in brief: as §1

[13] = compound: C[C@@H](Oc1cc(-c2cnn(C3CCNCC3)c2)cnc1N)c1c(Cl)ccc(F)c1Cl [crizotinib]
Method in brief: as §1

[14] = compound: C[C@H](C1=CC=C(C=C1)C(=O)NC2=C3C=CNC3=NC=C2)N
Method in brief: as §1

[15] = compound: C[C@H](Nc1ncnc2nc[nH]c12)c1cc2cccc(Cl)c2c(=O)n1-c1ccccc1 [duvelisib]
Method in brief: as §1

[16] = compound: Cc1cc(Nc2cc(CN3CCOCC3)c3nc(C)c(Cc4ccc(Cl)cc4F)n3n2)n[nH]1 [gandotinib]
Method in brief: as §1

[17] = compound: Cc1cc(Nc2cc(N3CCN(C)CC3)nc(Sc3ccc(NC(=O)C4CC4)cc3)n2)n[nH]1 [tozasertib]
Method in brief: as §1

[18] = compound: Cc1ccc(-n2nc(C(C)(C)C)cc2NC(=O)Nc2ccc(OCCN3CCOCC3)c3ccccc23)cc1 [doramapimod]
Method in brief: as §1

[19] = compound: Cc1ccc(NC(=O)c2ccc(CN3CC[C@H](N(C)C)C3)c(C(F)(F)F)c2)cc1Nc1nccc(-c2cncnc2)n1 [bafetinib]
Method in brief: as §1

[20] = compound: Cc1cccc(CC(=O)N2CCc3c2ccc(-c2cn(C)c4ncnc(N)c24)c3F)n1
Method in brief: as §1

Row | Target | log2 fold change [1] | log2 fold change [2] | log2 fold change [3] | log2 fold change [4] | log2 fold change [5] | log2 fold change [6] | log2 fold change [7] | log2 fold change [8] | log2 fold change [9] | log2 fold change [10] | log2 fold change [11] | log2 fold change [12] | log2 fold change [13] | log2 fold change [14] | log2 fold change [15] | log2 fold change [16] | log2 fold change [17] | log2 fold change [18] | log2 fold change [19] | log2 fold change [20]
1 | ARL6IP5 (UniProt O75915) | inactive: 0.097 | inactive: 0.003 | inactive: -0.035 | inactive: 0.022 | inactive: -0.034 | inactive: 0.027 | inactive: 0.015 | inactive: 0.1 | inactive: -0.008 | inactive: -0.014 | inactive: -0.069 | inactive: -0.038 | inactive: 0.059 | inactive: 0.132 | inactive: 0.021 | inactive: -0.17 | inactive: 0.023 | inactive: -0.027 | inactive: 0.027 | inactive: -0.164
2 | APOA1 (UniProt P02647) | inactive: 0.013 | inactive: -0.005 | inactive: 0.104 | inactive: -0.028 | inactive: 0.086 | inactive: -0.098 | inactive: 0.032 | inactive: -0.028 | inactive: 0 | inactive: 0.191 | inactive: -0.005 | inactive: -0.053 | inactive: -0.076 | inactive: -0.072 | inactive: 0.084 | inactive: 0.129 | inactive: 0.039 | inactive: 0.009 | inactive: 0.015 | inactive: 0.035
3 | ARHGAP45 isoform 2 (UniProt Q92619) | inactive: -0.015 | inactive: -0.017 | inactive: -0.004 | inactive: -0.028 | inactive: -0.079 | inactive: 0.02 | inactive: -0.05 | inactive: -0.021 | inactive: -0.001 | inactive: 0.001 | inactive: 0.058 | inactive: -0.02 | inactive: -0.001 | inactive: -0.001 | inactive: 0.003 | inactive: 0.048 | inactive: 0.022 | inactive: -0.009 | inactive: -0.046 | inactive: -0.004
4 | ARID1A (UniProt O14497) | inactive: 0.009 | inactive: -0.052 | inactive: -0.009 | inactive: 0 | inactive: -0.015 | inactive: 0.011 | inactive: 0.041 | inactive: 0.019 | inactive: 0.004 | inactive: -0.013 | inactive: -0.017 | inactive: -0.029 | inactive: -0.022 | inactive: -0.017 | inactive: -0.005 | inactive: -0.049 | inactive: 0.005 | inactive: 0.013 | inactive: -0.068 | inactive: 0.031
5 | ARRDC1 (UniProt Q8N5I2) | inactive: 0.011 | inactive: 0.072 | inactive: -0.056 | inactive: -0.035 | inactive: -0.005 | inactive: -0.01 | inactive: -0.081 | inactive: -0.096 | inactive: -0.033 | inactive: -0.264 | inactive: -0.009 | inactive: -0.111 | inactive: -0.184 | inactive: -0.046 | inactive: -0.021 | inactive: 0.026 | inactive: 0.096 | inactive: 0.059 | inactive: 0.002 | inactive: 0.122
6 | ARPC5L (UniProt Q9BPX5) | inactive: -0.034 | inactive: 0.036 | inactive: -0.014 | inactive: -0.007 | inactive: 0.033 | inactive: -0.018 | inactive: -0.042 | inactive: -0.047 | inactive: 0.005 | inactive: 0.009 | inactive: 0.026 | inactive: 0.03 | inactive: -0.007 | inactive: 0.008 | inactive: -0.004 | inactive: -0.013 | inactive: -0.018 | inactive: 0.006 | inactive: 0.06 | inactive: 0.035
7 | AQR (UniProt O60306) | inactive: 0.01 | inactive: -0.04 | inactive: 0.015 | inactive: 0.015 | inactive: -0.013 | inactive: -0.016 | inactive: 0.062 | inactive: -0.003 | inactive: 0.016 | inactive: -0.008 | inactive: -0.032 | inactive: -0.056 | inactive: -0.053 | inactive: 0.015 | inactive: 0.034 | inactive: -0.039 | inactive: 0.018 | inactive: 0.014 | inactive: -0.052 | inactive: 0.007
8 | ARL1 (UniProt P40616) | inactive: -0.017 | inactive: -0.025 | inactive: 0.079 | inactive: 0.001 | inactive: 0.088 | inactive: 0.111 | active: -0.293 | inactive: 0.081 | inactive: 0.053 | inactive: 0.057 | inactive: 0.001 | inactive: 0.051 | inactive: -0.028 | inactive: -0.056 | inactive: 0.001 | inactive: 0.159 | inactive: 0.004 | active: 0.228 | inactive: -0.027 | inactive: 0.096
9 | ARPC3 (UniProt O15145) | inactive: 0.084 | inactive: 0.018 | inactive: 0.007 | inactive: 0.05 | inactive: -0.011 | inactive: 0 | inactive: 0.011 | inactive: 0.001 | inactive: -0.043 | inactive: 0.025 | inactive: 0.042 | inactive: -0.039 | inactive: 0.043 | inactive: 0.073 | inactive: -0.026 | inactive: -0.067 | inactive: 0.009 | inactive: -0.03 | inactive: 0.053 | inactive: -0.099
10 | ARHGAP4 isoform 2 (UniProt P98171) | inactive: 0.016 | inactive: -0.069 | inactive: -0.004 | inactive: -0.071 | inactive: -0.031 | inactive: 0.035 | inactive: 0.089 | inactive: 0 | inactive: -0.004 | inactive: -0.023 | inactive: -0.007 | inactive: -0.03 | inactive: -0.025 | inactive: 0.003 | inactive: 0.017 | inactive: -0.044 | inactive: -0.044 | inactive: -0.011 | inactive: 0.003 | inactive: 0.037
11 | ARF3 (UniProt P61204) | inactive: -0.058 | inactive: 0.066 | inactive: 0.015 | inactive: 0.016 | inactive: 0.034 | inactive: 0.016 | inactive: -0.015 | inactive: 0.008 | inactive: 0.051 | inactive: 0.032 | inactive: -0.011 | inactive: -0.034 | inactive: 0.016 | inactive: -0.142 | inactive: 0 | inactive: 0.093 | inactive: -0.01 | inactive: 0.069 | inactive: -0.029 | inactive: 0.044
12 | ARHGDIB (UniProt P52566) | inactive: 0.014 | inactive: 0.05 | inactive: -0.008 | inactive: -0.025 | inactive: -0.026 | inactive: 0.002 | inactive: -0.004 | inactive: -0.011 | inactive: 0.01 | inactive: 0.006 | inactive: 0.007 | inactive: 0.023 | inactive: 0.004 | inactive: 0.03 | inactive: 0.04 | inactive: -0.039 | inactive: 0.03 | inactive: 0.039 | inactive: -0.018 | inactive: -0.055
13 | ARFIP2 (UniProt P53365) | inactive: 0.017 | inactive: -0.04 | inactive: -0.019 | inactive: 0.032 | inactive: -0.013 | inactive: -0.014 | inactive: -0.01 | inactive: -0.033 | inactive: -0.006 | inactive: 0.011 | inactive: 0.034 | inactive: -0.062 | inactive: 0.025 | inactive: 0.016 | inactive: 0.017 | inactive: -0.043 | inactive: 0.016 | inactive: -0.001 | inactive: 0.016 | inactive: -0.029
14 | API5 isoform 2 (UniProt Q9BZZ5) | inactive: 0.097 | inactive: 0.024 | inactive: -0.067 | inactive: -0.006 | inactive: -0.046 | inactive: 0.016 | inactive: 0.052 | inactive: 0.019 | inactive: 0.036 | inactive: 0.115 | inactive: 0.016 | inactive: 0.018 | inactive: 0.004 | inactive: 0.033 | inactive: 0.009 | inactive: -0.076 | inactive: -0.09 | inactive: 0.027 | inactive: -0.081 | inactive: -0.117
15 | APOB (UniProt P04114) | inactive: -0.078 | inactive: 0.099 | inactive: -0.021 | inactive: -0.04 | inactive: 0.264 | inactive: -0.008 | inactive: 0.003 | inactive: -0.024 | inactive: 0.023 | inactive: 0.014 | inactive: 0.054 | inactive: 0.004 | inactive: -0.003 | inactive: -0.182 | inactive: 0.104 | inactive: 0.084 | inactive: 0.015 | inactive: 0.024 | inactive: -0.091 | inactive: 0.06
16 | ARID3A (UniProt Q99856) | inactive: 0.038 | inactive: -0.024 | inactive: -0.022 | inactive: 0.062 | inactive: 0.019 | inactive: 0.022 | inactive: 0.069 | inactive: 0.025 | inactive: 0.019 | inactive: -0.026 | inactive: 0.013 | inactive: -0.033 | inactive: 0 | inactive: 0.074 | inactive: -0.024 | inactive: -0.122 | inactive: -0.044 | inactive: -0.014 | inactive: -0.031 | inactive: -0.002

Retrieved one by one from the list above:
Row | Target | log2 fold change [1] | log2 fold change [2] | log2 fold change [3] | log2 fold change [4] | log2 fold change [5] | log2 fold change [6] | log2 fold change [7] | log2 fold change [8] | log2 fold change [9] | log2 fold change [10] | log2 fold change [11] | log2 fold change [12] | log2 fold change [13] | log2 fold change [14] | log2 fold change [15] | log2 fold change [16] | log2 fold change [17] | log2 fold change [18] | log2 fold change [19] | log2 fold change [20]
7 | AQR (UniProt O60306) | inactive: 0.01 | inactive: -0.04 | inactive: 0.015 | inactive: 0.015 | inactive: -0.013 | inactive: -0.016 | inactive: 0.062 | inactive: -0.003 | inactive: 0.016 | inactive: -0.008 | inactive: -0.032 | inactive: -0.056 | inactive: -0.053 | inactive: 0.015 | inactive: 0.034 | inactive: -0.039 | inactive: 0.018 | inactive: 0.014 | inactive: -0.052 | inactive: 0.007
5 | ARRDC1 (UniProt Q8N5I2) | inactive: 0.011 | inactive: 0.072 | inactive: -0.056 | inactive: -0.035 | inactive: -0.005 | inactive: -0.01 | inactive: -0.081 | inactive: -0.096 | inactive: -0.033 | inactive: -0.264 | inactive: -0.009 | inactive: -0.111 | inactive: -0.184 | inactive: -0.046 | inactive: -0.021 | inactive: 0.026 | inactive: 0.096 | inactive: 0.059 | inactive: 0.002 | inactive: 0.122
